Source: paper PMC2588654
These are yes or no findings as the source states them, for the method shown. Binding seen in cells or lysates may run through a third protein. Some results given as binding are weak or reduced against the parent protein; the word gives no strength.

By UniProt entry, the sequences of proteins in these tests, tags left out.
UniProt O08565: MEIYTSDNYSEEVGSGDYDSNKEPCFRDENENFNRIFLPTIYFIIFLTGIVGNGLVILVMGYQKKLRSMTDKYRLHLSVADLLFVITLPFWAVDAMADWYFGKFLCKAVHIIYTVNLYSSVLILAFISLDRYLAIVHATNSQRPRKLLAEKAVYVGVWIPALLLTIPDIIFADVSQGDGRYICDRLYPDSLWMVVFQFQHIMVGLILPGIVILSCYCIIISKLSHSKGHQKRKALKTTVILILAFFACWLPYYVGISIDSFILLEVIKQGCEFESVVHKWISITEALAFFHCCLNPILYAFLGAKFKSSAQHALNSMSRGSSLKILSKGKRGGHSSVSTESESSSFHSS
UniProt P30904: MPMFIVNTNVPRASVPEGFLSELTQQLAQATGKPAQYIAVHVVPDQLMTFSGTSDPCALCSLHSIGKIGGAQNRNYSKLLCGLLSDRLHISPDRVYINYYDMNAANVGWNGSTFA

Target: chemokine receptor CXCR4 (rat (endogenous in bladder)) (UniProt O08565)
Assay: co-IP; CXCR4 precipitated from frozen bladder tissue homogenates (200 ug total protein) of saline- or cyclophosphamide-treated rats with CXCR4 antibody (5 ug, Sigma C3116) and Protein G agarose beads; denaturing, reducing SDS electrophoresis; MIF Western blot with biotinylated anti-MIF antibody

Substance: Macrophage migration inhibitory factor (from UniProt P30904 1-115)
- binding: binds
